In paper PMC4674085 (PLoS ONE, 2015):
Some peptides are written in HELM: one residue between dots, names in brackets for other building blocks, links after the first $.

Experiment: general procedure: Fmoc solid-phase peptide synthesis; rink-amide resin (0.88 μmol/mg) from Bachem; HCTU, DIEA
Conditions: whole synthesis, MALDI FT-ICR MS and reversed phase HPLC, scale of the general procedure 40–50 mg resin

Row | Substance | crude HPLC purity | final HPLC purity
1 | PEPTIDE1{S.V.S.V.S.V.S.V.S.[am]}$$$$V2.0 | ~50% | 
2 | PEPTIDE1{S.V.S.V.S.V.S.[am]}$$$$V2.0 | ~50% | 
3 | PEPTIDE1{S.V.S.V.S.V.[am]}$$$$V2.0 |  | >95%
4 | PEPTIDE1{S.V.S.V.S.[am]}$$$$V2.0 | ~60% | 
5 | PEPTIDE1{S.V.S.V.[am]}$$$$V2.0 |  | >95%
6 | PEPTIDE1{V.S.V.S.V.S.V.S.[am]}$$$$V2.0 | ~50% | 
7 | PEPTIDE1{V.S.V.S.V.S.V.[am]}$$$$V2.0 |  | >95%
8 | PEPTIDE1{V.S.V.S.V.S.[am]}$$$$V2.0 | ~60% | 
9 | PEPTIDE1{V.S.V.S.V.[am]}$$$$V2.0 |  | >95%
10 | PEPTIDE1{V.S.V.S.[am]}$$$$V2.0 | ~60% | 
